The other results are listed elsewhere or left out. Shown are side measurements of this screen, not its main read-out; they come without a call. The list favours compounds with an active or inconclusive main result. Potencies come from curve fits of mixed quality, noted in brackets.
Test: qHTS Assay for Modulators of Lamin A Splicing
Details: HeLa LMNA splicing GFP/RFP minigene ratio, 48 h
Summary of the method: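 S3 HeLa cells stably expressing lamin A-EGFP splicing minigene plus DsRed2, 600 cells/well, 48 h compound exposure at 37C. Laser-scanning cytometry; analysed as GFP (500-530 nm)/RFP (575-640 nm) total intensity ratio; 0.5% DMSO vehicle.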

[1] = measured here: GFP splicing reporter channel
[2] = measured here: RFP viability control channel

| Compound | AC50 [1] | AC50 [2] |
| --- | --- | --- |
| Cc1cc(=O)[nH]c(-n2[nH]c3c(c2=O)CCCC3)n1 | 35.5 µM [falling, single point] | 17.8 µM [falling, partial curve] |
| Cc1ccc(-c2cn3c(n2)sc2cc(C(=O)NC(C)C45CC6CC(CC(C6)C4)C5)ccc23)cc1 (configuration not stated) | 7.08 µM [rising, partial curve, poor fit] | – |
| O=C(Cn1cnc2ccccc21)N/N=C/C(Br)=C/c1ccccc1 | 10 µM [rising, partial curve] | 10 µM [rising, partial curve] |
| Cc1nc2ccccc2c(-c2ccccc2)c1C(=O)c1ccccc1 | 31.6 µM [rising, single point] | – |
| CC(C)CC(=O)N1CCN(c2ccc([N+](=O)[O-])cc2Cl)CC1 | 12.6 µM [rising, partial curve, poor fit] | 15.8 µM [rising, partial curve, poor fit] |
| Clc1ccc(C2C3=C(Nc4ncnn42)c2ccccc2CC3)cc1 (configuration not stated) | 25.1 µM [rising, single point] | 35.5 µM [rising, single point] |
| Cc1c(O)c2c(=O)n(-c3ccccc3)c(-c3ccccc3)cc2oc1=O | – | 12.6 µM [rising, single point] |
| NS(=O)(=O)c1ccc(NC(=S)N2CCN(c3ccc(Cl)c(Cl)c3)CC2)cc1 | 5.01 µM [rising, partial curve] | 20 µM [rising, partial curve] |
| COc1cccc(OCc2nnc(SCC(=O)N3c4ccccc4Sc4ccc(Cl)cc43)o2)c1 | – | 28.2 µM [rising, partial curve, poor fit] |
| CC(C)[C@H](NC(=O)c1ccccc1F)C(=O)Nc1nc2c(s1)CCCC2 | – | 12.6 µM [rising, partial curve] |
| CCN1CCN(c2ncc3c(n2)CCN(Cc2ccc(OC(C)C)cc2)C3)CC1 | 0.0316 µM [falling, full curve] | – |
| Cc1ccc(-c2cc(C(=O)N/N=C/c3c(C)nn(-c4ccccc4)c3C)[nH]n2)cc1 | – | 1.41 µM [rising, partial curve] |
| CCOc1ccc(NC(=O)c2ccccc2O)cc1 | 35.5 µM [rising, single point] | 35.5 µM [rising, single point] |
| O=C(CN1CCN(S(=O)(=O)c2ccccc2)CC1)Nc1ccc([N+](=O)[O-])cc1 | 31.6 µM [rising, single point] | – |
| CCOC(=O)c1cccc(NC(=O)NCc2ccc3c(c2)CCN3C(=O)c2ccccc2)c1 | 7.08 µM [falling, full curve, poor fit] | – |
| COc1ccc(NC(=O)CN(C)S(=O)(=O)c2ccc3c(c2)OCCO3)c2ncccc12 | – | 15.8 µM [rising, partial curve, poor fit] |
| CN(Cc1ccc(F)cc1)C(=O)COc1ccccc1-c1ccccc1 | 0.708 µM [rising, full curve, poor fit] | 0.398 µM [rising, full curve] |
| CCOC(=O)c1sc(Nc2nc3ccc(OC)cc3s2)cc1C | 10 µM [rising, partial curve] | 14.1 µM [rising, partial curve] |
| Cc1cc(S(=O)(=O)Nc2ccc(-c3ccc(N4CCCCCC4)nn3)cc2)c(C)cc1Cl | 5.62 µM [falling, partial curve, poor fit] | 3.98 µM [falling, full curve, poor fit] |
| COC(=O)c1sc(NC(=O)c2cc(-c3ccccc3)nc3ccccc23)c(C#N)c1C | 3.55 µM [rising, full curve, poor fit] | 2.82 µM [rising, full curve] |
| COc1ccc(-n2nnnc2S(=O)(=O)CC(=O)N2CCCCC2)cc1 | 35.5 µM [falling, single point] | 35.5 µM [falling, single point] |
| CC(=O)c1c(C)[nH]c(C(=O)Nc2cccc(S(=O)(=O)N3CCOCC3)c2)c1C | – | 11.2 µM [rising, partial curve] |
| CN(Cc1ccccc1)S(=O)(=O)c1ccc(NC(=O)C2CCCO2)cc1 (configuration not stated) | – | 10 µM [rising, partial curve, poor fit] |
| NC(=O)c1ccsc1NC(=O)c1ccc2c(c1)CCCC2 | – | 11.2 µM [rising, partial curve] |
| Cc1ccc(C)c(Nc2ncccc2C(=O)NCc2cccs2)c1 | – | 20 µM [rising, single point] |
| CCOC(=O)c1ccc(NC(=O)c2ccc(CO)c(C(=O)NC3CCN(C(=O)OCC)CC3)c2)cc1 | – | 14.1 µM [rising, single point] |

Full records, looked up by structure.
O=C(CN1CCN(S(=O)(=O)c2ccccc2)CC1)Nc1ccc([N+](=O)[O-])cc1 as listed: AC50 [1]: 31.6 µM [rising, single point]
CCOC(=O)c1sc(Nc2nc3ccc(OC)cc3s2)cc1C as listed: AC50 [1]: 10 µM [rising, partial curve]; AC50 [2]: 14.1 µM [rising, partial curve]
Cc1ccc(-c2cc(C(=O)N/N=C/c3c(C)nn(-c4ccccc4)c3C)[nH]n2)cc1 as listed: AC50 [2]: 1.41 µM [rising, partial curve]

(next part)

| Compound | AC50 [1] | AC50 [2] |
| --- | --- | --- |
| CCCc1nn2c(=O)cc(COC(=O)c3ccccc3NC(=O)c3ccc(Cl)cc3)nc2s1 | 0.178 µM [falling, full curve] | 0.158 µM [falling, full curve] |
| COc1cccc(NC(=O)c2c(C)cc(C)cc2CC(C)(C)C(=O)O)c1 | 3.98 µM [rising, partial curve, poor fit] | 3.55 µM [rising, single point] |
| Cc1ccccc1C(=O)OCc1cc(=O)n2nc(-c3cccs3)sc2n1 | 1.26 µM [falling, full curve] | 0.0398 µM [falling, full curve, poor fit] |
| COc1cccc(Cn2c(=O)c(-c3ccc(Cl)cc3)nc3cnc(N4CCNCC4)nc32)c1 | 22.4 µM [falling, partial curve] | 14.1 µM [falling, partial curve] |
| COCCn1c(SCC(=O)NCc2ccco2)nnc1-c1c[nH]c2ccccc12 | – | 5.01 µM [rising, full curve, poor fit] |
| COc1ccc2cc(S(=O)(=O)N3CCCCC3)ccc2c1S(=O)(=O)N1CCCCC1 | 12.6 µM [rising, single point] | 15.8 µM [rising, single point] |
| CCOC(=O)C(C)Sc1nnc(NC(=O)c2ccc3c(c2)OCO3)s1 (configuration not stated) | – | 0.891 µM [rising, single point] |
| Nn1cnnc1N/N=C\c1ccc(-c2ccccc2[N+](=O)[O-])o1 | 6.31 µM [falling, full curve] | 10 µM [falling, partial curve] |
| CC(C)(C)C(=O)NC(=S)NNC(=O)c1ccncc1 | – | 4.47 µM [rising, partial curve] |
| Fc1cccc(Nc2ncnc3sc4c(c23)CCC4)c1 | – | 35.5 µM [rising, single point] |
| CCN(CC(=O)Nc1cc(Cl)ccc1C)c1ncnc2sc(C)c(C)c12 | 31.6 µM [rising, single point] | 31.6 µM [rising, single point] |
| COc1ccc(CC(NC(C)=O)C(=O)NC2CCN(c3c4c(nc5ncnn35)CCC4)CC2)cc1 (configuration not stated) | 6.31 µM [rising, single point] | – |
| CSc1nc2ccccc2cc1/C=C(\C#N)c1cccc(Cl)c1 | 7.08 µM [falling, partial curve] | 5.62 µM [falling, partial curve] |
| COC(=O)c1c(Cc2ccccc2Cl)c[nH]c1C | 35.5 µM [rising, single point] | 25.1 µM [rising, single point] |
| Cc1ccc(C(=O)C2CCN(CC(=O)NC3CCCCC3)CC2)cc1 | – | 31.6 µM [rising, single point] |
| CCc1ccccc1N(CC)C(=O)CCc1nc(-c2ccc(C)cc2)no1 | 31.6 µM [rising, single point] | 35.5 µM [rising, single point] |
| CSc1cccc(CN2CCCC(CO)(Cc3cccc(Cl)c3)C2)c1 (configuration not stated) | 11.2 µM [falling, partial curve, poor fit] | – |
| CCN(CCCNC(=O)Cn1ncc2c([nH]c3ccc(C)cc32)c1=O)c1cccc(C)c1 | 2.82 µM [falling, full curve, poor fit] | – |
| COc1cc(CN2CCN(c3cccc(C)c3C)CC2)cc(Br)c1O | 17.8 µM [rising, single point] | – |
| CCC(=O)N1c2ccccc2CC1C(=O)NCc1ccc(OC(C)C)cc1 (configuration not stated) | – | 17.8 µM [rising, single point] |
| CC(OC(=O)c1snc(C(=O)NC2CCCCC2)c1N)C(=O)NC(C)(C)C (configuration not stated) | 3.55 µM [rising, full curve] | 10 µM [rising, partial curve] |
| Cc1ccc2ncnc(Nc3ccc(C)c(C)c3)c2c1 | – | 11.2 µM [rising, partial curve] |
| Cc1csc2nc(-c3cccc(NC(=O)C(C)C)c3)cn12 | 0.447 µM [rising, full curve, poor fit] | – |
| CCOC(=O)c1ccc(N2C(=O)C(CC(N)=O)N(CCc3ccc(OC)c(OC)c3)C2=S)cc1 (configuration not stated) | 3.16 µM [falling, single point] | 35.5 µM [falling, partial curve, poor fit] |
| c1ccc2c(c1)OCCOCCOCCOCCOCCOc1ccccc1OCCOCCOCCO2 | 14.1 µM [rising, partial curve, poor fit] | 17.8 µM [rising, partial curve] |
| CCN1C(=O)C(CC(=O)Nc2ccc(Br)cc2)N(CCCc2ccccc2)C1=S (configuration not stated) | 35.5 µM [falling, single point] | 35.5 µM [falling, single point] |
